## Percent effect of library compounds

Sequences of proteins named here, by UniProt entry; tags and fusion partners are left off. Residues count along the entry.
UniProt Q8IDJ8, 1-583: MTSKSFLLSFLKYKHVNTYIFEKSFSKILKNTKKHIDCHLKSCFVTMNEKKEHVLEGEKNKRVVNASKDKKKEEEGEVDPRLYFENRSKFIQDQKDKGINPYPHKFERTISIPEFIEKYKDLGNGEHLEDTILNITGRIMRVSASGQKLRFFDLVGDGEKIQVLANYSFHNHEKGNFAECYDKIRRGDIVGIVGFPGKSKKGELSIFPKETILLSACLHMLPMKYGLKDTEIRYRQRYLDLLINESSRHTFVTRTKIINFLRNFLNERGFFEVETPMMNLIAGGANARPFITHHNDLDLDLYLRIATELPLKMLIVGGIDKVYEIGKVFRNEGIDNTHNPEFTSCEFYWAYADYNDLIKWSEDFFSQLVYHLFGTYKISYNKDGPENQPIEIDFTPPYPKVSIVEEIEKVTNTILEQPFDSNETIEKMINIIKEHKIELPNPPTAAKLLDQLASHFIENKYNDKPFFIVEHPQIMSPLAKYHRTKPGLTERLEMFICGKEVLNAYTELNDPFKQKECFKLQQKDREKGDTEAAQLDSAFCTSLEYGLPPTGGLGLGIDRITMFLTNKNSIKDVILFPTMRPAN
UniProt I6X8D2, whole entry: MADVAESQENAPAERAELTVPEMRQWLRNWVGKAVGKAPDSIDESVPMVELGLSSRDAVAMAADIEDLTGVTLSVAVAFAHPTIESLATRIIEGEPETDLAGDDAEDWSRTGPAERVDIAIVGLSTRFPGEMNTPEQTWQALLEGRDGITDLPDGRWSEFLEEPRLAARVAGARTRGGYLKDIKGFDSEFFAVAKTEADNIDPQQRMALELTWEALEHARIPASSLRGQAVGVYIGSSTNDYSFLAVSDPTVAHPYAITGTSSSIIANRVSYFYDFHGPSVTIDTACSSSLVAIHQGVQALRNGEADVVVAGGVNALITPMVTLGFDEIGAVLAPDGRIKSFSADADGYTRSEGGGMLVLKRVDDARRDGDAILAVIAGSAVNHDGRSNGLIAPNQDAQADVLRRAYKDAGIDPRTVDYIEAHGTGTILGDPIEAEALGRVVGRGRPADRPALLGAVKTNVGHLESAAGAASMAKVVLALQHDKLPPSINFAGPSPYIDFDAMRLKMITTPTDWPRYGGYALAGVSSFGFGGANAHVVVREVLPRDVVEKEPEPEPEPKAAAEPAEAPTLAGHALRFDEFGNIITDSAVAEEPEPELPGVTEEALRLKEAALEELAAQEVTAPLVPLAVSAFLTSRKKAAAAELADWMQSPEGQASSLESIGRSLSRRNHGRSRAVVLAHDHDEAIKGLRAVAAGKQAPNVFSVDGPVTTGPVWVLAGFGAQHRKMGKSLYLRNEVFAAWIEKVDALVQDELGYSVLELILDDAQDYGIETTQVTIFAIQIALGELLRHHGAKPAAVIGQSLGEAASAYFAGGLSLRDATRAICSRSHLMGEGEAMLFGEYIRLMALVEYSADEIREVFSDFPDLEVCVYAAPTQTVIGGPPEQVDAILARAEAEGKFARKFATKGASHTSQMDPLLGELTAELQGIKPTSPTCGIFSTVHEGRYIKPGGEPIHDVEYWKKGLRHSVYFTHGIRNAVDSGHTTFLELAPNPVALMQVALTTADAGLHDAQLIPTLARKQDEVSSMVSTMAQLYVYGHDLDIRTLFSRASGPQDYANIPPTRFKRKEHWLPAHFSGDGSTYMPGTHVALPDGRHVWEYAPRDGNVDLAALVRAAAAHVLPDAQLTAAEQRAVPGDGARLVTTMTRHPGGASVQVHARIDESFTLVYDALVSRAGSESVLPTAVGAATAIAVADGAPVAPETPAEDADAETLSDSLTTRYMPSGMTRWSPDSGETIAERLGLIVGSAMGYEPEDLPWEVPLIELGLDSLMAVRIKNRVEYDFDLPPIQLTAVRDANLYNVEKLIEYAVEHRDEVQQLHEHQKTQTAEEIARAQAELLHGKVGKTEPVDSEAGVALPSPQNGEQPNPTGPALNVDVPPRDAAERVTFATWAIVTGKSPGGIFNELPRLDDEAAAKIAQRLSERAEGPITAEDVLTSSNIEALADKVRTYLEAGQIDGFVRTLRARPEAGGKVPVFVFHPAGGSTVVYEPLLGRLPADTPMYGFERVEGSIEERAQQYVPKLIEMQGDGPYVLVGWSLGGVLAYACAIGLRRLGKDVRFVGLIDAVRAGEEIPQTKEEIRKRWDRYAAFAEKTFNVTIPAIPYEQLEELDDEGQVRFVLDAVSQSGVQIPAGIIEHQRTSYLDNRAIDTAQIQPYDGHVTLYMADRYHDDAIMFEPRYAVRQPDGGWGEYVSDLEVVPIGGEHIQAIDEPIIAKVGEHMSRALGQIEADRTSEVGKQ
UniProt P9WPC5, whole entry: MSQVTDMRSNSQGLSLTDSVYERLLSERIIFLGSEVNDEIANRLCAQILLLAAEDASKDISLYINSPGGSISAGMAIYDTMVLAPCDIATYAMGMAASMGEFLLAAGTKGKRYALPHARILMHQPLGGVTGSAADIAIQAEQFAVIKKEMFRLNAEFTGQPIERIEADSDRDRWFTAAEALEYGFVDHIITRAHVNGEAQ
UniProt P9WPC3, whole entry partner: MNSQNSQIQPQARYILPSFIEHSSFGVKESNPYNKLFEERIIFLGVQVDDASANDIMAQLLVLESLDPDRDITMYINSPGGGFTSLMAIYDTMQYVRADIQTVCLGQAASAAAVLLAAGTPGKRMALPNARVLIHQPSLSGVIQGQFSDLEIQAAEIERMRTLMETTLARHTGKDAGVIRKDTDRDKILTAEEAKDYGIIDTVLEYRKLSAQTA

The values are deposited in ChEMBL (CHEMBL3988442, “University of Dundee, Small-Polar-MMV Screening Library” (2021)).

Values are the deposited “Percent Effect”, in %.
The record does not define 0% and 100%; most values in the screen are far below 50% and negative numbers occur (in some assays of this library far below -100).
Compounds were drawn at random from those tested, without regard to their results.

A: 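Lysine-tRNA ligase, Plasmodium falciparum 3D7 (UniProt Q8IDJ8). Enzyme assay of the cytosolic lysyl-tRNA synthetase in 384-well plates, read by luminescence. Compounds at 30 µM. Higher reads as stronger inhibition, judged from the few compounds that gave an IC50. Size under these conditions: about 69,000 compounds, about 49 of them at 50% or above in at least one test.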
B: 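Polyketide synthase Pks13, Mycobacterium tuberculosis (UniProt I6X8D2). Enzyme assay of the thioesterase domain of polyketide synthase 13; the read-out is not stated. Compounds at 30 µM. The record gives no direction; the compounds picked for IC50 retests had high values, so higher reads as stronger inhibition. Size under these conditions: about 67,000 compounds, about 300 of them at 50% or above in at least one test.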
C: 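Protease assay of ClpP1P2, read by the AMC dye that it sets free. Target: ClpP1P2, Mycobacterium tuberculosis (UniProt P9WPC5 and UniProt P9WPC3). Concentration: 50 µM. Higher reads as stronger inhibition, judged from the few compounds that gave an IC50. Most other retested compounds had strongly negative values. Of about 69,000 compounds tested this way, about 10 (0.015%) reached 50% or more in at least one test.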

structure,A,B,C
COC[C@H]1CN(CC2CC2)C(=O)[C@@H]2CCN(Cc3ccoc3)CC[C@H]12,4.658,-32.52,-7.884
CCCn1nc(-c2nc(C3CC3)no2)ccc1=O,6.564,-4.997,5.286
COc1cc(C(=O)NCCc2ccc(OC)c(OC)c2)on1,4.81,45.65,2.63
CCc1cc(CN(C)C(=O)C2CC(=O)N(c3cccc(O)c3)C2)on1 (centres unmarked),4.376,-7.024,8.6
Cc1cnc(N2CCCOC(CN3CCCCC3)C2)nc1 (centres unmarked),-1.64,-37,-2.1
COC(=O)C(NC(=O)c1ccco1)c1cc(F)ccc1F (centres unmarked),-2.098,-13.86,2.451
Cc1cncc(C2CCN(Cc3ccc(S(C)(=O)=O)cc3)CC2)n1,-0.6216,0.4996,-14.58
CC(C)CN1Cc2nc(N3CCC(O)CC3)ncc2C1=O,4.547,-2.758,-4.321
Cc1ncc(C(=O)N2CCCC2(C)C(=O)N2CCOCC2)c(C)n1 (centres unmarked),1.316,13.59,-0.9479
Cc1noc(C)c1C(=O)NCCc1cccs1,4.157,-16.15,2.502
CC(C)[C@H]1COC(=O)N1Cc1nncn1C(C)C,5.454,-26.01,-1.072
c1ccc(-n2ccnc2)c(CNCC2CNc3ccnn3C2)c1 (centres unmarked),6.202,-7.258,0.5604
CCC(=O)N1CCC(c2nc3c(c(NC)n2)CN(C)CC3)C1 (centres unmarked),0.8509,10.96,-6.388
COCCN(Cc1sccc1C)C(=O)COc1cccnc1,2.926,-10.81,-6.38
Cc1nc(N2CCN(C(=O)C3CC3)CC2)c2c(n1)c(C)nn2C,4.536,-31.91,10.36
CC(C)CN1C(=O)C2(CCCC2)NC1c1cn(C)c(=O)n(C)c1=O (centres unmarked),15.24,-24.16,-0.6865
CC(C)Cc1ncc2c(n1)CN(c1nccc(N(C)C)n1)C2,0.5427,-8.32,-28.52
CNc1ncc(CN(C)C(=O)CCc2[nH]nc3c2CCCC3)cn1,0.2794,-16.29,-0.2959
Cc1nc[nH]c1CN(Cc1ccc(F)cc1)C1CC(C)(C)NC(C)(C)C1,0.8115,-4.732,-12.81
CCC(C)N1CCc2nc(N3CCCC3)nc(NC(C)C)c2C1 (centres unmarked),-1.061,-9.636,-26.51
c1ccc2c(OCCN3CCn4c(nnc4C4CC4)C3)cccc2c1,1.643,-22.25,-32.19
COc1cc(C(=O)N(Cc2ccco2)C2CC2)cc(OC)c1OC,-2.447,-7.497,11.17
CCn1ccnc1CN1CCN(c2ncnc3ccccc23)CC1,3.962,-19.08,-2.325
CC(=O)c1ccccc1-c1nc(CC2CCN(C)CC2)no1,1.861,-2.726,4.747
Cc1ccccc1SCC(=O)N[C@H]1CC[C@H](n2cnnc2)CC1,1.172,-3.61,-6.114
O=C(NCCc1nncn1C1CC1)C1(c2ccccc2)CCC1,3.826,14.85,0.3854
c1cc(CN2CCc3nc(N4CCOCC4)nc(NC4CC4)c3C2)co1,1.467,-38.93,3.336
CC(C)OCCCNC(=O)CS(=O)(=O)Cc1ccc(C(C)C)cc1,2.517,-10.42,1.471
O=C(C[C@@H]1COC[C@H]2CN(Cc3ccc(F)cc3)C[C@@H]12)N1CCCC1,6.115,5.51,9.192
Cn1ncc2c(N3CCCC(C)(O)C3)nc(-c3cccnc3)nc21 (centres unmarked),3.732,9.388,-1.376
O=C(NCc1cccs1)[C@H]1CC[C@@H]2[C@@H](CCN2C2CCC2)O1,5.897,4.531,-3.498
CC(=O)N(Cc1noc(C)n1)C1CCN(Cc2ncc(C(C)C)o2)C1 (centres unmarked),-5.148,-21.48,-36.72
Cc1ccccc1N1CCCN(C(=O)CN2C(=O)OC[C@@H]2C(C)C)CC1,-1.952,-2.126,-20.82
CCOCC1CCN(C(=O)Nc2ccc3c(c2)CCCO3)C1 (centres unmarked),-3.578,12.16,8.069
CN1CC2(CCN(CCCOCc3ccccc3)CC2)OC1=O,5.702,-24.01,-18.06
Cc1ncsc1-c1nnc(C2CCN(Cc3ccc(F)cc3)CC2)o1,-2.182,-26.83,-4.944
COc1cc(C2(C(=O)N3CCN(CC(C)(C)O)CC3)CC2)ccc1C,1.626,-9.161,-3.049

The first 4 entries again:

{"structure": "COC[C@H]1CN(CC2CC2)C(=O)[C@@H]2CCN(Cc3ccoc3)CC[C@H]12", "A": 4.658, "B": -32.52, "C": -7.884}
{"structure": "CCCn1nc(-c2nc(C3CC3)no2)ccc1=O", "A": 6.564, "B": -4.997, "C": 5.286}
{"structure": "COc1cc(C(=O)NCCc2ccc(OC)c(OC)c2)on1", "A": 4.81, "B": 45.65, "C": 2.63}
{"structure": "CCc1cc(CN(C)C(=O)C2CC(=O)N(c3cccc(O)c3)C2)on1", "stereo": "centres unmarked", "A": 4.376, "B": -7.024, "C": 8.6}